This is an account of results in article PMC12040169 (PLOS Biology, 2025).

The list shows a part of the results.

The subject of this test is T1, CTL2-GFP (C. trachomatis L2/434/Bu, GFP-expressing).
T1 construct: L2/434/Bu, GFP-expressing
Details: species or system HeLa; Intracellular C. trachomatis growth in HeLa cells, bulk GFP fluorescence relative to DMSO. As to conditions: bulk GFP, single well; 28.5 h, 10 µM; inhibitor.
Consider `O=P(O)(CN1CCCCC1)C1CCCCC1O` (stereo not drawn) [CBK262325], for which the “% of control remaining” value was found to be 119.884%.
The same measure for `CCCC(=O)Nc1nnc(-c2ccc(Cl)cc2)o1` [CBK287594]: 126.422%; for `Cn1cc(Cl)c(C2CCCCCN2C(=O)c2cc(C3CC3)on2)n1` (stereo not drawn) [CBK285120]: 111.765%.
The same measure for `CC(C)NC(=O)N1Cc2nc[nH]c2C[C@H]1c1nc(-c2ccc(OC(F)(F)F)cc2)no1` [CBK288960]: 93.5087%.
For the compound `Cc1nc(C)n(CC2CCCCN2Cc2cn3ccccc3c2C#N)n1` (stereo not drawn) [CBK306102], the “% of control remaining” value is listed as 122.984%.
Take `Cn1cccc1C(=O)N[C@H]1C[C@H]2C(=O)Nc3ccc(/C=C/c4ccccc4)cc3C(=O)N2C1` [CBK289367]: the “% of control remaining” value is reported as 98.5058%.
Turning to `O=C(CN1CCC(C(=O)NC(c2ccccc2)c2ccsc2)CC1)c1ccc(F)cc1` (stereo not drawn) [CBK148432], the “% of control remaining” value is listed as 100%.
With `CC#Cc1cn([C@H]2C[C@@H](O)[C@@H](CO)O2)c(=O)[nH]c1=O` [CBK201182], the “% of control remaining” value is 148.986%.
As for `O=C(NC(c1ccccc1)c1ccccc1)N1CCN(c2ccccc2)CC1` [CBK155177], the “% of control remaining” value came to 109.997%.
For the compound `CCn1c(CC2CCN(C(=O)CCN3CCCCO3)CC2)nn(C)c1=O` [CBK307217], the “% of control remaining” value amounted to 151.232%.
Consider `CC(C)(C)c1nc(COc2ccc3nonc3c2)no1` [CBK005831], for which the “% of control remaining” value is on record as 130.418%.
In the case of `COc1ccc(CCNC2CCN(Cc3ccccc3)CC2c2ccccc2)cc1OC` (stereo not drawn) [CBK286166], the “% of control remaining” value came to 124.16%.
Regarding `Cc1ccc(C#N)cc1S(=O)(=O)NC(=O)COCC1CC1` [CBK304427], the “% of control remaining” value is reported as 110.699%.
Regarding `OCc1ccc(CN2C[C@H](O)C[C@H]2c2nc(-c3cnccn3)no2)o1` [CBK288832], the “% of control remaining” value was found to be 129.008%.
Consider `COc1cc2ncnc(NCc3ccccc3)c2cc1OC` [CBK287984], for which the “% of control remaining” value was 141.467%.
Take `C[C@H](c1ccccc1)n1c(=O)[nH]c2ncc(-c3ccc(C(=O)N4CCN(C)CC4)cc3)nc21` [CBK064559]: the “% of control remaining” value turned out to be 95.5715%.
With `CCOC(=O)C1CSCN1C(=O)c1cnn(C(CC)CC)c1C` (stereo not drawn) [CBK304759], the “% of control remaining” value worked out at 96.7986%.
For the compound `Cc1nc(S(=O)(=O)N2CCC(OCC3CC3)C2)cn1C` (stereo not drawn) [CBK304668], the “% of control remaining” value was 110.712%.
As to `CSc1ncc(C(=O)NC2CCCC2)c(NC2CCCC2)n1` [CBK291223], the “% of control remaining” value stood at 121.19%.
The same measure for `Oc1nc(O)c2c(n1)NC1(CCC1)[C@@H]1C[C@@H](O)[C@@H](O)[C@H]21` [CBK303249]: 122.531%.
The same measure for `Cc1n[nH]c(O)c1C(c1cccc([N+](=O)[O-])c1)c1c(C)n[nH]c1O` [CBK264753]: 100%.
Turning to `O=C(CN1CCC(C(=O)c2ccc(F)cc2)CC1)Nc1ncccn1` [CBK149131], the “% of control remaining” value is given as 109.218%.
The same measure for `COc1cc2oc(=O)c(CC(=O)N3CCCC(C(=O)O)C3)c(C)c2cc1Cl` (stereo not drawn) [CBK286754]: 113.406%; for `O=C(CCOc1ccccc1)Nc1cncc(OC2CCNCC2)n1` [CBK026734T]: 123.006%.
Turning to `O=C(CCNS(=O)(=O)c1ccccc1)OCc1ccc([N+](=O)[O-])cc1` [CBK296659], the “% of control remaining” value came to 130.129%.
Turning to `OCCCNc1nccnc1-c1ccco1` [CBK037346], the “% of control remaining” value was 102.964%.
For the compound `Cc1cc(-c2nnc(SCCC(=O)Nc3ccccc3)o2)no1` [CBK268737], the “% of control remaining” value stood at 120.583%.
For the compound `O=C(Cc1ccc(Cl)cc1)Nc1ccc(Oc2ccc3c(c2)C(=O)NC3=O)cc1` [CBK265869], the “% of control remaining” value was found to be 182.419%.
For the compound `O=C(Nc1ccc(-c2nc3ccccc3o2)c(O)c1)c1ccc(-c2ccc([N+](=O)[O-])cc2)o1` [CBK263416], the “% of control remaining” value is listed as 71.8532%.
The same measure for `CC(C)C(=O)N1CC2(CCN(Cc3cc(=O)[nH]c(=O)[nH]3)CC2)c2ccccc21` [CBK144602T]: 104.824%; for `CCOc1ccc(/C=C2\SC(=O)NC2=S)cc1` [CBK027996]: 120.069%; for `COc1c(C)cccc1C(=O)N1CCCCC1c1ncc(C(=O)Nc2ccccc2)c(C)n1` (stereo not drawn) [CBK285841]: 132.035%.
In the case of `O=S(=O)(Nc1ccc(C(F)(F)F)cc1Cl)c1cc(Br)c(Cl)s1` [CBK057196], the “% of control remaining” value is 38.4844%.
Take `CN(C)CCN1C(=O)C(O)=C(C(=O)c2ccc(S(=O)(=O)N(C)C)cc2)C1c1cccnc1` (stereo not drawn) [CBK264729]: the “% of control remaining” value was 119.789%.
As to `C=CCn1c2cc(C)oc2c2cnn(CC(=O)N(C)C)c(=O)c21` [CBK283326], the “% of control remaining” value turned out to be 135.003%.
The same measure for `CC(=O)c1ccc(NC(=O)N[C@H]2CO[C@H]3[C@@H]2OC[C@H]3OCC(N)=O)cc1` [CBK289460]: 105.625%; for `O=C(O)C(Cc1ccccc1)N1C(=O)/C(=C/C=C/c2ccccc2)SC1=S` (stereo not drawn) [CBK263496]: 100%; for `O=C(Cn1c(=O)n(Cc2ccco2)c2ncccc21)N1CCCC1` [CBK284708]: 143.11%.
With `COc1cccc2c1cc(C(=O)NCCCC1CCOC1)n2C` (stereo not drawn) [CBK283284], the “% of control remaining” value came out at 116.611%.
With `C[C@@H](c1ccccc1)N1C(=O)[C@@H]2CN(S(=O)(=O)c3cccs3)CCN2C1=O` [CBK289635], the “% of control remaining” value stood at 126.132%.
The same measure for `CCCS(=O)(=O)n1c(=O)n(CC(=O)c2ccccc2OC)c2ccccc21` [CBK106498]: 131.58%; for `O=C(Nc1c(F)cc(F)cc1OC1CCNCC1)c1coc2c1C(=O)CCC2` [CBK050331T]: 97.7439%; for `O=C(c1ccc(N2CCN(C3CC(=O)N(Cc4cccs4)C3=O)CC2)cc1)c1cccnc1` (stereo not drawn) [CBK269040]: 138.419%.
`O=C(NC(c1ccc(-c2ccccc2)cc1)c1cnccn1)C1CCN(CCOc2ccc3ccccc3c2)CC1` (stereo not drawn) [CBK147982]: the “% of control remaining” value is listed as 117.546%.
Take `CC1CN(S(=O)(=O)N2CCOCC2)CCN1S(=O)(=O)N1CCOCC1` (stereo not drawn) [CBK269011]: the “% of control remaining” value was found to be 94.6139%.
Take `O=C(NCCO)c1cccc(-c2cncc(NCCCN3CCOCC3)n2)c1` [CBK065432]: the “% of control remaining” value came to 169.218%.
Regarding `Cc1sc(-c2cnccn2)nc1O` [CBK067738], the “% of control remaining” value turned out to be 104.624%.
Regarding `O=C(COc1ccc2ccccc2c1)Nc1ccc(S(=O)(=O)N2CCCCC2)cc1` [CBK263765], the “% of control remaining” value amounted to 95.4302%.
